# This is one part of the list.
# Columns and labels:
# Assay in all cases: glycan array binding signal (z-score within array); higher = stronger binding
# Details in all cases: glycan notation: IUPAC condensed, linker removed
# [1] = biological target: Neu5Ac(a2-3)Gal(b1-4)[Fuc(a1-3)]GlcNAc(b1-3)Gal(b1-4)GlcNAc
# Outline: (§1)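 Negative Z-scores can be read as non-binding. The Z-score is calculated within each array and then averaged across arrays of one protein sequence at different concentrations or buffers and across linkers. Arrays, 3228 in all, were curated from the Consortium for Functional Glycomics database and kept only where the protein sequence was available.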
# [2] = biological target: Neu5Ac(a2-3)Gal(b1-4)[Fuc(a1-3)]GlcNAc(b1-3)Gal(b1-4)[Fuc(a1-3)]GlcNAc(b1-3)Gal(b1-4)[Fuc(a1-3)]GlcNAc
# Outline: as §1
# [3] = biological target: Neu5Ac(a2-3)Gal(b1-4)[Fuc(a1-3)]GlcNAc(b1-3)GalNAc
# Outline: as §1
# [4] = biological target: Neu5Ac(a2-3)Gal(b1-4)[Fuc(a1-3)]GlcNAc(b1-6)[Gal(b1-3)]GalNAc
# Outline: as §1
# [5] = biological target: Neu5Ac(a2-3)Gal(b1-4)[Fuc(a1-3)]GlcNAc(b1-6)[Neu5Ac(a2-3)Gal(b1-3)]GalNAc
# Outline: as §1
# [6] = biological target: Neu5Ac(a2-3)Gal(b1-4)[Fuc(a1-3)]GlcNAc6S
# Outline: as §1
# [7] = biological target: Neu5Ac(a2-3)Gal6S(b1-4)GlcNAc
# Outline: as §1
# [8] = biological target: Neu5Ac(a2-3)Gal6S(b1-4)[Fuc(a1-3)]GlcNAc
# Outline: as §1
# [9] = biological target: Neu5Ac(a2-3)GalNAc
# Outline: as §1
# [10] = biological target: Neu5Ac(a2-3)GalNAc(b1-4)GlcNAc
# Outline: as §1
# [11] = biological target: Neu5Ac(a2-3)[GalNAc(b1-4)]Gal(b1-4)Glc
# Outline: as §1
# [12] = biological target: Neu5Ac(a2-3)[GalNAc(b1-4)]Gal(b1-4)GlcNAc
# Outline: as §1
# [13] = biological target: Neu5Ac(a2-3)[GalNAc(b1-4)]Gal(b1-4)GlcNAc(b1-3)GalNAc
# Outline: as §1
# [14] = biological target: Neu5Ac(a2-3)[Neu5Ac(a2-6)]GalNAc
# Outline: as §1
# [15] = biological target: Neu5Ac(a2-6)Gal
# Outline: as §1
# [16] = biological target: Neu5Ac(a2-6)Gal(b1-3)GlcNAc(b1-3)[Gal(b1-4)GlcNAc(b1-6)]Gal(b1-4)Glc
# Outline: as §1
# [17] = biological target: Neu5Ac(a2-6)Gal(b1-4)Glc
# Outline: as §1
# [18] = biological target: Neu5Ac(a2-6)Gal(b1-4)GlcNAc
# Outline: as §1
# [19] = biological target: Neu5Ac(a2-6)Gal(b1-4)GlcNAc(b1-2)Man
# Outline: as §1
# [20] = biological target: Neu5Ac(a2-6)Gal(b1-4)GlcNAc(b1-2)Man(a1-3)Man(b1-4)GlcNAc(b1-4)GlcNAc
# Outline: as §1
# [21] = biological target: Neu5Ac(a2-6)Gal(b1-4)GlcNAc(b1-2)Man(a1-3)[Gal(b1-4)GlcNAc(b1-2)Man(a1-6)]Man(b1-4)GlcNAc(b1-4)GlcNAc
# Outline: as §1
# [22] = biological target: Neu5Ac(a2-6)Gal(b1-4)GlcNAc(b1-2)Man(a1-3)[GlcNAc(b1-2)Man(a1-6)]Man(b1-4)GlcNAc(b1-4)GlcNAc
# Outline: as §1
# [23] = biological target: Neu5Ac(a2-6)Gal(b1-4)GlcNAc(b1-2)Man(a1-3)[GlcNAc(b1-2)Man(b1-4)GlcNAc(b1-2)Man(a1-6)]Man(b1-4)GlcNAc(b1-4)GlcNAc
# Outline: as §1
# [24] = biological target: Neu5Ac(a2-6)Gal(b1-4)GlcNAc(b1-2)Man(a1-3)[GlcNAc(b1-4)][Neu5Ac(a2-6)Gal(b1-4)GlcNAc(b1-2)Man(a1-6)]Man(b1-4)GlcNAc(b1-4)GlcNAc
# Outline: as §1
# [25] = biological target: Neu5Ac(a2-6)Gal(b1-4)GlcNAc(b1-2)Man(a1-3)[Man(a1-6)]Man(b1-4)GlcNAc(b1-4)GlcNAc
# Outline: as §1
# [26] = biological target: Neu5Ac(a2-6)Gal(b1-4)GlcNAc(b1-2)Man(a1-3)[Neu5Ac(a2-3)Gal(b1-4)GlcNAc(b1-2)Man(a1-6)]Man(b1-4)GlcNAc(b1-4)GlcNAc
# Outline: as §1
# [27] = biological target: Neu5Ac(a2-6)Gal(b1-4)GlcNAc(b1-2)Man(a1-3)[Neu5Ac(a2-6)Gal(b1-4)GlcNAc(b1-2)Man(a1-6)]Man(b1-4)GlcNAc(b1-4)GlcNAc
# Outline: as §1
# [28] = biological target: Neu5Ac(a2-6)Gal(b1-4)GlcNAc(b1-2)Man(a1-3)[Neu5Ac(a2-6)Gal(b1-4)GlcNAc(b1-2)Man(a1-6)]Man(b1-4)GlcNAc(b1-4)[Fuc(a1-6)]GlcNAc
# Outline: as §1
# [29] = biological target: Neu5Ac(a2-6)Gal(b1-4)GlcNAc(b1-2)Man(a1-6)Man(b1-4)GlcNAc(b1-4)GlcNAc
# Outline: as §1
binder,measurement,setting,value
"MFG-E8 (Mus musculus), P21956 (protein) MQVSRVLAALCGMLLCASGLFAASGDFCDSSLCLNGGTCLTGQDNDIYCLCPEGFTGLVCNETERGPCSPNPCYNDAKCLVTLDTQRGDIFTEYICQCPVGYSGIHCETETNYYNLDGEYMFTTAVPNTAVPTPAPTPDLSNNLASRCSTQLGMEGGAIADSQISASSVYMGFMGLQRWGPELARLYRTGIVNAWTASNYDSKPWIQVNLLRKMRVSGVMTQGASRAGRAEYLKTFKVAYSLDGRKFEFIQDESGGDKEFLGNLDNNSLKVNMFNPTLEAQYIKLYPVSCHRGCTLRFELLGCELHGCSEPLGLKNNTIPDSQMSASSSYKTWNLRAFGWYPHLGRLDNQGKINAWTAQSNSAKEWLQVDLGTQRQVTGIITQGARDFGHIQYVASYKVAHSDDGVQWTVYEEQGSSKVFQGNLDNNSHKKNIFEKPFMARYVRVLPVSWHNRITLRLELLGC",glycan array binding signal (z-score),[1],0.264
same,glycan array binding signal (z-score),[2],-0.238
same,glycan array binding signal (z-score),[3],-0.277
same,glycan array binding signal (z-score),[4],0.678
same,glycan array binding signal (z-score),[5],0.094
same,glycan array binding signal (z-score),[6],-0.386
same,glycan array binding signal (z-score),[7],0.038
same,glycan array binding signal (z-score),[8],0.373
same,glycan array binding signal (z-score),[9],-0.34
same,glycan array binding signal (z-score),[10],-0.729
same,glycan array binding signal (z-score),[11],-1.07
same,glycan array binding signal (z-score),[12],-0.167
same,glycan array binding signal (z-score),[13],0.127
same,glycan array binding signal (z-score),[14],-0.775
same,glycan array binding signal (z-score),[15],0.316
same,glycan array binding signal (z-score),[16],-0.184
same,glycan array binding signal (z-score),[17],-0.53
same,glycan array binding signal (z-score),[18],0.663
same,glycan array binding signal (z-score),[19],-0.354
same,glycan array binding signal (z-score),[20],0.146
same,glycan array binding signal (z-score),[21],-0.261
same,glycan array binding signal (z-score),[22],1.08
same,glycan array binding signal (z-score),[23],-1.22
same,glycan array binding signal (z-score),[24],0.277
same,glycan array binding signal (z-score),[25],-0.747
same,glycan array binding signal (z-score),[26],-0.667
same,glycan array binding signal (z-score),[27],-0.202
same,glycan array binding signal (z-score),[28],-0.05
same,glycan array binding signal (z-score),[29],0.651

# Exported tab-delimited: part of the list above
binder	measurement	setting	value
MFG-E8 (Mus musculus), P21956 (protein) MQVSRVLAALCGMLLCASGLFAASGDFCDSSLCLNGGTCLTGQDNDIYCLCPEGFTGLVCNETERGPCSPNPCYNDAKCLVTLDTQRGDIFTEYICQCPVGYSGIHCETETNYYNLDGEYMFTTAVPNTAVPTPAPTPDLSNNLASRCSTQLGMEGGAIADSQISASSVYMGFMGLQRWGPELARLYRTGIVNAWTASNYDSKPWIQVNLLRKMRVSGVMTQGASRAGRAEYLKTFKVAYSLDGRKFEFIQDESGGDKEFLGNLDNNSLKVNMFNPTLEAQYIKLYPVSCHRGCTLRFELLGCELHGCSEPLGLKNNTIPDSQMSASSSYKTWNLRAFGWYPHLGRLDNQGKINAWTAQSNSAKEWLQVDLGTQRQVTGIITQGARDFGHIQYVASYKVAHSDDGVQWTVYEEQGSSKVFQGNLDNNSHKKNIFEKPFMARYVRVLPVSWHNRITLRLELLGC	glycan array binding signal (z-score)	[18]	0.663
same	glycan array binding signal (z-score)	[25]	-0.747

# Reference: the supplement of paper PMC8728848
